Literature values, collected in patent publication US20040162345A1, “Compounds with NEP/MP-inhibitory activity and uses thereof” (Solvay Pharmaceuticals GmbH, priority 2001, published 2004).
At least one compound was matched to its structure with a doubt left. No end group written: not given here.

Molecular target: T1, SEP (soluble secreted endopeptidase) (Mus musculus, UniProt Q9JLI3)
T1 sequence (Q9JLI3 63-765 limits assumed): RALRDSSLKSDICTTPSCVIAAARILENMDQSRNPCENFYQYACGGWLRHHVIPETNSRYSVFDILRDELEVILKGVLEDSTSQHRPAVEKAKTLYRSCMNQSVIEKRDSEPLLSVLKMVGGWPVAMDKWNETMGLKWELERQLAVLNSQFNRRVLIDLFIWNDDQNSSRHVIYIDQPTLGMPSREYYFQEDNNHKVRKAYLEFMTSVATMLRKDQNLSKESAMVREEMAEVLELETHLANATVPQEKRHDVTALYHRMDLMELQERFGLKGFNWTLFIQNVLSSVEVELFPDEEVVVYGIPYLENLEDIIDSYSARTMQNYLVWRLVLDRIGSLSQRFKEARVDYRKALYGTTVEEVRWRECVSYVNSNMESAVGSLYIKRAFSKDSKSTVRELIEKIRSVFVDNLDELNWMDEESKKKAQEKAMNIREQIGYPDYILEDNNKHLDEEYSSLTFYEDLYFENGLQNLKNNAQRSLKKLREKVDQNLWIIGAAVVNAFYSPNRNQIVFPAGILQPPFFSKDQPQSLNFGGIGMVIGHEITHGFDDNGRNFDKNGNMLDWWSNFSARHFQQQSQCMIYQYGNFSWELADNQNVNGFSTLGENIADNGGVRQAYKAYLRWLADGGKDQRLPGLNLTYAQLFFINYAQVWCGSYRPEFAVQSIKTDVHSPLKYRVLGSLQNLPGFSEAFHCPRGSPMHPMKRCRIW
Conditions: 10 μg SEP; 0.5 μM substrate; 12 h, 37° C.; cited from earlier work

For RPPGFSPFR [Bradykinin], the “% Hydrolysis by SEP (Emoto et al.)” value is listed as greater than 95%.
